Assay results: PMC9604462
Construct, isoform or probe ends are uncertain for at least one entry. A weaker result is weaker than the reference pair of the same experiment.

By UniProt entry, the sequences of proteins in these tests, tags left out. Residues count along the entry.
UniProt P00442, 2-152: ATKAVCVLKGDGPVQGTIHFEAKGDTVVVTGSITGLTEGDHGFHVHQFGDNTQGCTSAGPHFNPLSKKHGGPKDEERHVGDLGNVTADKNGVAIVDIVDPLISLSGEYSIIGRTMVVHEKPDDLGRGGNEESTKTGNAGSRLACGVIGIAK

Biological target: bovine Cu/Zn superoxide dismutase SOD1 (bovine) (UniProt P00442)
Test: SAXS
Settings: H2O2 0.05-1 mM, 24 h, binding said to be disrupted; SAXS: 100 uM bovine SOD1 and dsDNA; commercial protein

ATGGAATGGAAT (double strand) [dsDNA]: binds more weakly.
